Measurements taken from PubChem BioAssay AID493014 (National Center for Advancing Translational Sciences (NCATS), 2011).
The list shows a part of the results. These are further read-outs of the screen, such as a control signal, another cell line or another target. No call is given for them. Most of these compounds were active or inconclusive in the main read-out, so they are no random draw. Potencies come from curve fits of mixed quality, noted in brackets.

Assay: qHTS Assay to Find Inhibitors of Chronic Active B-Cell Receptor Signaling
Details: ABC-DLBCL IkBa-CBG/CBR reporter, luminescence ratio (green luciferase fused to IkBa over red control in TMD8 lymphoma cells), 4 h
Summary of the method: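 Cell line TMD8 (human ABC DLBCL), stably expressing tet-inducible CBG68-IkBa fusion and CBR; IMDM/0.5% FBS; cpd up to 46 uM; dox induction, 4 h, 37C/5% CO2; dual luminescence; green/red ratio; MG132 control.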

[1] = measured here: CBR red luminescence, cell number
[2] = measured here: IkBa-CBG green luminescence

Compound | AC50 [1] | AC50 [2]
CCCCOc1ccc(-c2cnc3ccccc3n2)cc1 | 3.26 µM [rising, full curve] | –
COC(=O)c1ccc(NC(=O)C[n+]2ccccc2C)cc1 | 6.31 µM [falling, partial curve] | –
O=C(COC(=O)c1c(Cl)ccc(Cl)c1Cl)NC(=O)NCc1ccccc1 | 0.82 µM [rising, full curve, poor fit] | –
O=C(Nc1ccc2nc(-c3cccs3)c(-c3cccs3)nc2c1)N1CCOCC1 | 0.411 µM [rising, full curve] | –
CC[C@@]12C(=O)N(c3cccc(F)c3)C(=O)N1[C@H](c1cccc(C)c1)[C@@H]1C(=O)N(Cc3ccccc3)C(=O)[C@@H]12 | 22.4 µM [falling, single point] | –
N#Cc1nc(COc2ccc(Cl)cc2Cl)oc1N1CCN(c2ccccc2)CC1 | 0.58 µM [rising, full curve, poor fit] | –
CCCC(=O)Nc1ccccc1NC(=O)c1cc(OC)c(OC)c(OC)c1 | 25.9 µM [falling, single point] | –
COc1cc(OC)c(NC(=O)c2ccoc2C)cc1Cl | 10.3 µM [rising, partial curve, poor fit] | –
COc1cc2nc(CN3CCN(S(=O)(=O)c4ccc(C)c(C)c4)CC3)[nH]c(=O)c2cc1OC | 17.8 µM [rising, single point] | –
CCCC(=O)N(C1CC(C)C(C#N)(C#N)C1(C#N)C#N)N(C)C (configuration not stated) | 14.1 µM [falling, partial curve, poor fit] | 14.1 µM [rising, partial curve, poor fit]
c1ccc(-c2cc3c(N4CCOCC4)ncnc3s2)cc1 | 1.58 µM [rising, partial curve, poor fit] | –
N#CC1=C(N)OC2=C(CCc3ccccc32)C1c1ccccc1 (configuration not stated) | 2.59 µM [rising, full curve] | 2.59 µM [falling, full curve]
Cc1ccccc1Cn1c(CN2CCC(C(=O)NCc3cccnc3)CC2)cc2ccccc21 | 10 µM [falling, partial curve, poor fit] | –
Oc1ccc(-c2nnc(-c3ccccc3)c(-c3ccccc3)n2)cc1 | 4.11 µM [rising, single point] | –
CN(C)/N=C/c1ccc(OS(=O)(=O)c2ccccc2)cc1 | 1 µM [rising, full curve] | –
O=C(O)C1CC(=O)N(CCc2c[nH]c3ccccc23)C1 (configuration not stated) | 35.5 µM [rising, single point] | –
COc1ccc(Cl)cc1NC(=S)NCCc1c[nH]c2ccccc12 | 10 µM [falling, partial curve] | –
O=C(Nc1ccc(O)cc1)c1ccccc1OCc1ccccc1 | 14.1 µM [falling, partial curve] | –
COc1ccccc1-n1c(CNC(=O)c2ccco2)nnc1SCC(=O)Nc1cc(C)ccc1C | 8.91 µM [falling, partial curve] | –
CC1=NN(/C(=N\c2nnc(C)s2)Nc2ccccc2)[C@H](c2cccc3ccccc23)S1 | 0.0651 µM [falling, full curve, poor fit] | –

Compound | AC50 [1] | AC50 [2]
O=C(Cc1ccsc1)N1CCc2c([nH]c3ccccc23)C1c1ccccn1 (configuration not stated) | 15.8 µM [falling, partial curve, poor fit] | –
O=C(NCCCSc1ccccc1)c1cc(Cl)ccc1O | 14.1 µM [falling, partial curve] | –
COc1ccc(/C=C2\SC(=S)N(CCCC(=O)Nc3ccccn3)C2=O)cc1OC | 4.11 µM [falling, partial curve] | –
C/C=C/C=C/C(=O)N1CC[C@]23c4ccccc4N[C@H]4N(C)c5cccc6c5[C@]42CCN([C@H]6C2OC2(C)C)[C@H]13 (some centres not stated) | 7.08 µM [falling, full curve] | –
COc1ccc(N2C3=[N+](CC2(C)O)c2ccccc2CC3)cc1 (configuration not stated) | 25.1 µM [rising, single point] | –
CC(C)(C)c1ccc(OCC(=O)N2CCCCCC2)c(Br)c1 | 25.1 µM [falling, partial curve, poor fit] | –
Cc1cc(C)n(-c2nc3sc4c(c3c(=O)[nH]2)CCCC4)n1 | 18.4 µM [falling, single point] | –
O=C(Cn1ncc(Cl)c(Cl)c1=O)N1CCOCC1 | 35.5 µM [falling, single point] | –
Cn1cnnc1Sc1cc(N2CCN(S(=O)(=O)c3ccc4ccccc4c3)CC2)ccc1[N+](=O)[O-] | 29.1 µM [rising, single point] | –
O=C(COC(=O)c1ccc(S(=O)(=O)N2CCCCCC2)cc1)NCc1ccc(Cl)cc1 | 0.0082 µM [rising, full curve] | –
N#C/C(=N\Nc1cccc(C(F)(F)F)c1)C(=O)c1csc(-c2cccnc2)n1 | 35.5 µM [falling, single point] | –
COc1ccc(-c2csc(N(CCCN(C)C)C(=O)c3ccc(C)cc3)n2)cc1 | 35.5 µM [falling, single point] | –
CC(=O)O[C@H]1CC[C@H]2[C@@H]3CCc4cc(O)ccc4[C@H]3CC[C@]12C | 1.64 µM [rising, full curve] | –
O=C(O)c1ccc(N/N=C/c2ccc(OC(=O)c3ccccc3Cl)cc2)cc1 | 0.082 µM [falling, full curve] | –
O=C(/C=C/c1ccco1)Nc1ccccc1N1CCCCC1 | 3.98 µM [rising, full curve, poor fit] | –
O=c1c2[nH]cnc2n(-c2ccccc2)c(=O)n1Cc1ccccc1 | 22.4 µM [rising, partial curve] | –
CC1(C)CC(=O)C2=C(C1)NC(=O)CC2C(=O)NCc1ccc(F)cc1 (configuration not stated) | 0.58 µM [falling, partial curve, poor fit] | –
COc1ccc(-c2nc3c(c(SCC(=O)Nc4cccc(O)c4)n2)Cc2c(CO)cnc(C)c2O3)cc1 | 2.24 µM [rising, full curve, poor fit] | –
CC(Sc1nnc(C(F)(F)F)n1C)C(=O)Nc1ccc(S(N)(=O)=O)cc1 (configuration not stated) | 11.2 µM [rising, partial curve, poor fit] | –
O=C(Nc1cc(Cl)ccc1Cl)c1cc(S(=O)(=O)NCCc2ccccc2)ccc1F | 20 µM [falling, partial curve, poor fit] | –

As a short view, 4 of the compounds above:
Compound | AC50 [1] | AC50 [2]
O=C(Nc1ccc(O)cc1)c1ccccc1OCc1ccccc1 | 14.1 µM [falling, partial curve] | –
COc1ccccc1-n1c(CNC(=O)c2ccco2)nnc1SCC(=O)Nc1cc(C)ccc1C | 8.91 µM [falling, partial curve] | –
CC1=NN(/C(=N\c2nnc(C)s2)Nc2ccccc2)[C@H](c2cccc3ccccc23)S1 | 0.0651 µM [falling, full curve, poor fit] | –
O=C(Cc1ccsc1)N1CCc2c([nH]c3ccccc23)C1c1ccccn1 (configuration not stated) | 15.8 µM [falling, partial curve, poor fit] | –

Remaining list, next part

Compound | AC50 [1] | AC50 [2]
Cc1cc(-c2ccccc2)n(-c2cc(N/N=C/c3ccccc3O)ncn2)n1 | – | 6.51 µM [falling, full curve]
CC1=C(CO)C(=O)OC([C@@H](C)C2CC[C@H]3C4C[C@H]5O[C@]56[C@@H](O)C=CC(=O)[C@]6(C)C4CC[C@]23C)C1 (some centres not stated) | 2.24 µM [falling, partial curve, poor fit] | –
Cc1ccc(C(C)NC(=O)c2c(C)noc2C)cc1C (configuration not stated) | 0.92 µM [rising, full curve, poor fit] | –
O=C(NCc1ccc2c(c1)OCO2)c1ccc2c(c1)N(Cc1c(F)cccc1Cl)C(=O)CS2 | 0.0164 µM [rising, full curve, poor fit] | –
COc1cc(C2C(C#N)=C(N)Oc3n[nH]c(-c4cccnc4)c32)cc(Br)c1O (configuration not stated) | 11.2 µM [falling, partial curve, poor fit] | –
CC(C)(C)C(=O)N1CCN(c2nc3ccccc3o2)CC1 | 35.5 µM [rising, single point] | –
Cc1[nH]c2ccc(F)cc2c1CCN(Cc1cccnc1)C(=S)NC(C)(C)C | 14.1 µM [falling, partial curve, poor fit] | –
O=C(CSC1=NCCS1)Nc1nc(-c2ccccc2)cs1 | 28.2 µM [falling, single point] | –
O=C1CCc2ccccc2N1 | 7.08 µM [rising, partial curve] | –
CCC(=O)OCc1c(C(F)(F)F)nn(C)c1Sc1ccc(F)cc1 | 28.2 µM [rising, partial curve, poor fit] | –
Cc1ccc(C)c(N=Cc2c(O)c3ccccc3oc2=O)c1 | 1.26 µM [falling, full curve, poor fit] | –
CSCCCNC(=O)c1ccc(OC2CCN(C(=O)c3cccnc3)CC2)cc1 | 35.5 µM [rising, partial curve, poor fit] | –
O=C(COC(=O)c1cc([N+](=O)[O-])ccc1N1CCOCC1)Nc1cccc(F)c1 | 3.55 µM [rising, partial curve, poor fit] | –
COC(=O)CC1=C(C(=O)OC)[C@@H](c2ccccc2[N+](=O)[O-])C(C#N)=C(N)O1 | 3.55 µM [falling, partial curve, poor fit] | –
CCSc1nnc(NC(=O)c2ccc3ccccc3n2)s1 | 5.62 µM [falling, single point] | –
CCN1CCN(Cc2ccc(NC(=O)c3cc(NC(=O)c4cncc(-c5ccc(C#N)cc5)c4)cc(OC)c3)cc2C(F)(F)F)CC1 | 35.5 µM [rising, single point] | –
CCOc1ccc(-n2c(SCC(=O)N3CCC(C(=O)O)CC3)nc3ccccc3c2=O)cc1 | 8.91 µM [falling, partial curve, poor fit] | –
Cc1ccc(S(=O)(=O)Oc2ccc(C3C4=C(CCCC4=O)N(CCC(=O)O)C4=C3C(=O)CCC4)cc2Cl)cc1 | 16.4 µM [rising, partial curve, poor fit] | –
COc1cc(/C=C/c2sc3ccccc3[n+]2CCCS(=O)(=O)[O-])ccc1O | 7.08 µM [rising, partial curve, poor fit] | –
CC(/C=C/C=C/c1ccccc1)=N\NC(=O)c1cccnc1 | 35.5 µM [falling, single point] | –
